No constants are given. Whether binding was seen depends on the method and setting. In cells and extracts the contact can be indirect. Some binding calls cover weakened binding; strength is not graded here.
Assays:
[1] = molecular target: Synaptotagmin-1 (rat (endogenous in H9c2)) (UniProt P21707); experiment: co-IP; cardiomyocyte (H9c2) lysate in IP Lysis/Wash buffer incubated with antibody-crosslinked Protein A/G Plus Agarose resin at 4 °C overnight (Pierce Classic IP Kit); eluate blotted; cells with or without 500 μM H2O2, or infected with Syt1 overexpression or negative control adenovirus
[2] = molecular target: Synaptotagmin-1, overexpressed from adenovirus (UniProt P21707); experiment: as above

Amino acid sequences for entries named in this document (tags omitted).
UniProt P21707: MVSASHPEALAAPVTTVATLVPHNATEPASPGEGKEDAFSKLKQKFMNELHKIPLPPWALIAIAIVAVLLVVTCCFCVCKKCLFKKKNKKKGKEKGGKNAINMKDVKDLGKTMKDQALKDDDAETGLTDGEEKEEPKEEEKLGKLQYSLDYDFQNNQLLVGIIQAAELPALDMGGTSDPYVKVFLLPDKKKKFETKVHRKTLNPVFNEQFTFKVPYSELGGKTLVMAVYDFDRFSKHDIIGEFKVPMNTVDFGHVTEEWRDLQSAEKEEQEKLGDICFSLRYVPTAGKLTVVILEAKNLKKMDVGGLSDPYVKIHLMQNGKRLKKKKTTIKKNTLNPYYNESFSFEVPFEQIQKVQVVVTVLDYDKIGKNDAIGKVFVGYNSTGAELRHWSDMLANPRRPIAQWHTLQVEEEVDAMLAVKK
UniProt Q9JK66: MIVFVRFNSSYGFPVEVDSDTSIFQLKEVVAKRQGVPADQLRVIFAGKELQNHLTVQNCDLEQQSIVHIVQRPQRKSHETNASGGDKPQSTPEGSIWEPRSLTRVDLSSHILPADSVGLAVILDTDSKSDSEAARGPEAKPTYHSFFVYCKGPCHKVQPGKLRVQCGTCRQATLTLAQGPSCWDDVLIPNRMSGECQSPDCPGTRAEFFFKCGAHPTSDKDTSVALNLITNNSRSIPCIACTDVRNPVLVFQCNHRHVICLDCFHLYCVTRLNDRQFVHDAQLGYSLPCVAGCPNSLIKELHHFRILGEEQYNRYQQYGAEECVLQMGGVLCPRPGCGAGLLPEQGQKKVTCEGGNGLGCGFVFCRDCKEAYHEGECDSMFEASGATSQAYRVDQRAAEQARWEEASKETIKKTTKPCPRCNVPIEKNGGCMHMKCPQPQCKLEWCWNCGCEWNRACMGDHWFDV

“Parkin (from UniProt Q9JK66 1-465) (enzyme)” was tested, and the binding [1] was “binds” and the binding [2] was “binds”.
